At least one compound was matched to its structure with a doubt left.
System: normal human dermal fibroblasts
Experiment: Procollagen I secreted to the medium of fibroblasts, measured by western blotting
Format: cell-based
Details: retinoic acid 10 μM, positive control (FIG. 2)
Experimental: It was investigated whether the increase in primary cilia leads to increased secretion of procollagen to the medium.
Specifically, normal human dermal fibroblasts were cultured in DMEM supplemented with 10% FBS (fetal bovine serum), 100 mg/L streptomycin and 100,000 U/L penicillin. The cultured fibroblasts seeded onto a 6-well plate with 1×10^5 cells per well and 1.5 mL of a medium containing 0.2 μM cytochalasin D or 2 pM SAG as a test substance was added 24 hours later. This leads to increased expression of primary cilia as in Test Example 1. 48 hours after the treatment with the test substance, the medium was collected and the amount of procollagen I in the medium was measured by western blotting. The procollagen I antibody was purchased from Developmental Studies Hybridoma Bank and diluted in a PBS buffer containing 0.1% Trito™ X-100 and 5% normal goat serum to 1/10000 based on weight. As a control group (loading control), electrophoresed polyacrylamide gel was stained with 0.05% Coomassie blue and then observed. The experiment was repeated at least twice for independent test groups.

With `CC1=C(/C=C/C(C)=C/C=C/C(C)=C/C(=O)O)C(C)(C)CCC1` [retinoic acid, reference compound] the “amount of procollagen in fibroblasts (procollagen I in the medium)” value was “increased”.
